Test results published in PubChem BioAssay AID1458 (National Center for Advancing Translational Sciences (NCATS), 2008).
Where “and” joins values, the source holds several entries; their conditions need not be identical. Identical values can stand only once. Screen size: about 210,000 compounds; about 5,900 (2.8%) were called active. Inconclusive results (about 5%) are left out. Calls follow the shape of the dose curve; as a rule, active = well fitted activation curve with a large enough effect; inconclusive = small, poorly fitted or top-dose-only effect; inactive = no such curve, though single readings can be large or run the other way. This is a selection; strong and weak results do not stand in their true shares. Entries without a call were filed so in the source. Where a structure was tested more than once in an assay, its records may differ in their call.

test: qHTS Assay for Enhancers of SMN2 Splice Variant Expression; conditions: HEK293 SMN2-luciferase splicing reporter, luminescence, 30-36 h; activity change, positive = activation: at 46.1 µM (top of the series) unless noted; also: nearly all actives have a fitted effect of over 55% in size; as to activity change, positive = activation: % of control where 0% means no effect
Summary of the method: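 HEK293 cells carry an SMN2 […]–luciferase reporter in which exon 7 inclusion puts luciferase in frame. Cells were plated 10-12 h before compound addition, then incubated 30-36 h at 37C. ONE-Glo luminescence was read; sodium butyrate at 4.5 mM final served as control.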
Potency is read from the fitted curve at half-maximal effect.

| Structure (SMILES) | activity change, positive = activation | Potency |
| --- | --- | --- |
| CC(=O)/C=C1/SC(CC(=O)O)C(=O)N1c1ccccc1 (stereo unspecified) | inactive: -9.2% |  |
| CC(=O)Nc1ccc(S(=O)(=O)N2CCN(CC(O)COc3ccc4ccccc4c3)CC2)cc1 (stereo unspecified) | -67.4% |  |
| O=C(O)Cn1cc(C(=S)N2CCOCC2)c2ccccc21 | 36.5% |  |
| CCOC(=O)c1c(C)n(C)c2ccc(OCC(O)Cn3c(C)nc4ccccc43)cc12 (stereo unspecified) | inactive: -53.5% |  |
| COc1ccc2nc(NC(=O)C3CCN(S(=O)(=O)c4cccs4)CC3)sc2c1 | -91.1% |  |
| CCCC(=O)NC(c1ccco1)c1cc(Cl)c2cccnc2c1O (stereo unspecified) | -98.7% |  |
| O=C(CCN1CCN(C/C=C/c2ccccc2)CC1)Nc1ccc(Cl)cc1 | -70.6% |  |
| COc1ccc(C2C(=O)c3ccccc3C2=O)cc1 |  | inactive and active: 3.98 µM |
| CCn1nnnc1SCC(=O)Nc1cc(C)on1 | 40.7% |  |
| COc1cccc(NS(=O)(=O)c2ccc3[nH]cc(C(=O)NCCc4ccccc4)c(=O)c3c2)c1 | inactive: -39.3% |  |
| CSc1ccc(NC(=O)N2CCN(c3nc4ccccc4s3)CC2)cc1 | -53.2% |  |
| CC12CCC(=O)N1C(C(=O)Nc1cccc3ccccc13)CS2 (stereo unspecified) | 45.7% |  |
| CC(=O)Nc1ccc2nc(C)n(Cc3ccc(Cl)cc3)c(=O)c2c1 |  | active: 12.6 µM |
| CCn1c(=O)n(CC)c2cc(S(=O)(=O)N3CCC(c4ccccc4)CC3)ccc21 | -31.8% |  |
| O=C1N=C(O)CN1/N=C\c1ccc(-c2ccc([N+](=O)[O-])cc2)o1 | inactive: -16.8% [at 20.6 µM] |  |
| CCOC(=O)c1cn(Cc2ccccc2)nn1 | -9.23% |  |
| C/C(N=NC(=[SH+])SCc1ccccc1)=C1\C=CC=CN1.[Cl][Cu] | inactive: -63.9% [at 9.22 µM] |  |
| c1ccc(CCc2nc(-c3ccccn3)no2)cc1 |  | active: 11.2 µM |
| CCC1Oc2ccc(C)cc2N(CC(=O)NCCCN2CCN(Cc3ccccc3)CC2)C1=O (stereo unspecified) | 34.9% |  |
| O=C(/C=C/c1cn(-c2ccccc2)nc1-c1cccnc1)c1ccco1 | inactive: -37% |  |
| O=C(CCn1c(=O)c2ccccc2n(Cc2cccnc2)c1=O)NCc1ccc2c(c1)OCO2 | 31.1% |  |
| CC1=NN(c2nc3ccccc3[nH]2)C(=O)/C1=C/N(C)C | 42.7% |  |

| Structure (SMILES) | activity change, positive = activation | Potency |
| --- | --- | --- |
| Cc1cc(N2CCOCC2)nc2ccc(NC(=O)CCC(=O)N3CCCCC3)cc12 |  | active: 8.91 µM |
| COc1ccc2c(CC(=O)OCC(=O)Nc3ccc4c(c3)OCO4)coc2c1 | 33.7% |  |
| Cc1csc(NC(=O)CCc2c(C)nc3cc(-c4ccc(Cl)cc4)nn3c2C)n1 | inactive: -83.2% |  |
| Oc1ccc(/C=N/NC2=NCCCCC2)c(O)c1 |  | active: 12.6 µM |
| CC(C)CCNC(=O)CCS(=O)(=O)c1cccc2nonc12 | 23.9% |  |
| Clc1ccc(-c2csc3ncnc(N4CCc5ccccc5C4)c23)cc1 | -32% |  |
| COc1ccc(-c2c[n+](CC(=O)OC3CC(C)CCC3C(C)C)c3n2CCC3)cc1 (stereo unspecified) | inactive: -77.9% |  |
| CCCOc1ccc(NC(=O)C2CCCNC2=O)cc1 (stereo unspecified) | 25.7% |  |
| CCOc1ccc(OCc2cccc(C(=O)N/N=C/c3cccnc3)c2)cc1 |  | active: 0.126 µM |
| COc1ccc(CCNC(=O)Cn2nc(C)n3c(cc4cc(F)ccc43)c2=O)cc1OC | inactive: -9.25% |  |
| COc1ccc(N2CCN(C(=O)C3Cc4ccccc4CN3C(=O)c3ccccc3)CC2)cc1 (stereo unspecified) | 55.4% |  |
| Cc1ccc2c(c1)S/C(=C/c1ccc[n+](C)c1)N2CCO | -63.7% |  |
| CCOC(=O)N1CCN(C(=O)CSc2ccc3nnc(CCNC(=O)c4ccc(OC)cc4)n3n2)CC1 | -37.5% |  |
| CCc1nnc(NC(=O)C2CCC2)s1 | 46.5% |  |
| CSc1nc(-c2ccc(Cl)cc2)nn1S(=O)(=O)c1ccccc1 |  | active: 12.6 µM |
| Cc1cccc(N2C(=O)CC(N3CCN(c4cccc(C(F)(F)F)c4)CC3)C2=O)c1 (stereo unspecified) | 32.3% |  |
| Cc1cc(NCCCN(C)C)n2nc(-c3cccs3)cc2n1 | -30.4% |  |
| Cc1ccc(CNC(=O)C2C3C=CC(C3)C2C(=O)O)cc1 (stereo unspecified) | 25.2% |  |
| O=C(c1cccc(F)c1F)N1CCCC1 | 30.1% |  |
| Cc1onc(-c2c(Cl)cccc2Cl)c1C(=O)N/N=C(\N)COc1ccc(Cl)cc1 | -76.9% |  |
| CCOCCc1nnc(NC(=O)c2cc(OC)c(OC)c(OC)c2)s1 |  | active: 15.8 µM |
| CNc1ccc(C(O)(C(F)(F)F)C(F)(F)F)cc1C(O)(C(F)(F)F)C(F)(F)F | 26.1% |  |

| Structure (SMILES) | activity change, positive = activation | Potency |
| --- | --- | --- |
| CCOC(=O)N1CCN(C(=O)CSc2nnc(-c3cc(OC)ccc3OC)o2)CC1 | 37.9% |  |
| Cc1ccc2[nH]cc(C(=O)CCl)c2c1 | -84% |  |
| N#Cc1ccc(C(=O)Nc2ccn(-c3ccccc3)n2)cc1 | inactive: -52.7% |  |
| CCOc1ccc(-c2cc(C(=O)N3CCN(C)CC3)c3ccccc3n2)cc1 |  | active: 11.2 µM |
| COc1ccc(COc2cc(-c3cccc(OC)c3)nc3ccc(NC(=O)c4ccccc4)cc23)cc1 | inactive: -2.14% |  |
| CCOC(=O)CC1=Nc2ccccc2NC(=O)C1 | 39.2% |  |
| Cc1ccc2nc3c(c(Nc4ccc5c(c4)OCCO5)c2c1)CCC3 | inactive: -39.6% |  |
| Cc1cc(C)n(/N=C/c2cccc(O)c2)c(=O)c1C(N)=O | 30.4% |  |
| Cc1cccc(NC(=S)N/C(=N/S(=O)(=O)c2ccccc2)c2ccccc2)c1 | 31.6% |  |
| Cc1ccsc1/C=C1\CCC(C2CCCC2)C1=O (stereo unspecified) | 109% |  |
| CCc1nc(Nc2ccncc2)c2oc3ccccc3c2n1 | -31.7% |  |
| CCC1(c2cccc(Cl)c2)NC(=O)N(Cc2cc(C(=O)OC)c(C)o2)C1=O (stereo unspecified) | -53% |  |
| CCOC(=O)C1CCCN(S(=O)(=O)c2cc(OCC(=O)NC3CCCCC3)c(C)cc2Cl)C1 (stereo unspecified) | inactive: -48.7% |  |
| O=C(Nc1ccc(F)cc1)c1nn(-c2ccccc2)c(=O)cc1Cl | -112% |  |
| CN1CCCC(OC(=O)CCCC(=O)OC2CCCN(C)C2)C1 (stereo unspecified) | 50.8% |  |
| CCOC(=O)c1c(C)oc2c1c(C(c1cccnc1)N1CCN(C)CC1)c(O)c1ccccc12 (stereo unspecified) | 44.8% |  |
| CN(C)c1ccc(/C=N/NC(=O)CCCO)cc1 | inactive: 13.2% |  |
| CCN(CC)c1ccc(NC(=O)c2cnc3ccccn3c2=O)c(C)c1 | -82.1% |  |
| COc1ccccc1-n1c(=O)oc2ccc(Cl)cc2c1=O | -85% |  |
| Cc1ccc(C)c(N(C(=O)Cn2nnc3ccccc32)C(C(=O)NCc2ccco2)c2ccncc2)c1 (stereo unspecified) | 33.5% |  |
| O=C(c1ccc(Cn2c(=S)[nH]c3ccccc3c2=O)cc1)N1CCN(c2ccccn2)CC1 | inactive: -97.5% |  |
| C=C(C)c1cccc(C(C)(C)NC(=O)N2CCN(C)CC2)c1 | 30.7% |  |

| Structure (SMILES) | activity change, positive = activation | Potency |
| --- | --- | --- |
| Cc1ccc(C(=O)O)cc1S(=O)(=O)N1CCC(C(=O)O)CC1 |  | active: 11.2 µM |
| CSCc1ccc(C(=O)Nc2ccc(C(N)=O)cc2)cc1 |  | active: 11.2 µM |
| Cc1ccc(N2C(=O)CCC2(C(N)=O)c2ccccc2)cc1 (stereo unspecified) | 30.5% |  |
| CC1(C)Cc2ccccc2-c2nnc(SCC(=O)N3CCN(c4ccccc4)CC3)n21 | -87.4% |  |
| Cc1ccccc1Nc1c(-c2ccccn2)nc2ccccn12 | -5.46% |  |
| COc1cccc(-n2c(C)nc3c(cnn3-c3ccc(C)cc3)c2=O)c1 | -49.5% |  |
| CCOC(=O)c1[nH]c2ccccc2c1NC(=O)c1ccc(Br)o1 | inactive: -60.4% |  |
| Cc1ccc(C)n1-c1ccc(NC(=O)c2ccccc2)cc1 |  | active: 11.2 µM |
| COc1ccc(/C=N/NC(=O)c2ccc(=O)n(C)c2)cc1OC | inactive: 8.46% |  |
| COc1cccc(C2CC(=O)Nc3cc4c(cc32)CCC4)c1 (stereo unspecified) | -43.1% |  |
| O=C(Nc1sc2c(c1C(=O)O)CCC2)c1ccccc1 |  | active: 10 µM |
| O=c1n(-c2ccc(Br)cc2)cnn1-c1ncccc1[N+](=O)[O-] |  | active: 12.6 µM |
| O=C(Nc1nc2ccc(SC(F)F)cc2s1)c1ccc2c(c1)S(=O)(=O)c1ccccc1C2=O | -25.2% |  |
| CCCCOc1ccc(C(=O)N/N=C/c2cn[nH]c2-c2ccc(OC)c(OC)c2)cc1 | inactive: -1.23% |  |
| Clc1nc(Cl)nc(N(c2ccccc2)c2ccccc2)n1 | 8.88% |  |
| COc1ccccc1C(=O)Nc1ccc2c3c(cccc13)CC2 | 59% |  |
| N#Cc1nc(-c2ccc(F)cc2)oc1NCc1ccccc1 | -33.5% |  |
| C=CCNc1nc(NCCN2CCOCC2)nc(N2CCOCC2)n1 | 30.3% |  |
| O=C(ONc1ccc(N=NC(=O)c2ccccc2O)cc1)c1ccccc1 | -32.2% |  |
| Cc1cc2nc(-c3cccnc3SCC(=O)NCc3ccco3)[nH]c2cc1C |  | active: 12.6 µM |
| CCCCOCCCNC(=O)c1c(-c2ccccc2)noc1C | 39.8% |  |
| Cc1cc(Cl)ccc1OCCCC(N)=O | 30.4% |  |

| Structure (SMILES) | activity change, positive = activation | Potency |
| --- | --- | --- |
| COc1ccc(-c2nc(S(=O)(=O)c3ccc(Cl)cc3)c(NCc3ccccc3)o2)cc1 | 29.3% |  |
| COn1c(=O)c(-c2ccc(Cl)cc2)[n+]([O-])c2ccccc21 | 30.6% |  |
| O=C(NCCCn1ccnc1)C(=O)NCC1OCCN1S(=O)(=O)c1ccc(Br)cc1 (stereo unspecified) | inactive: -31.2% |  |
| C=C(C)CSc1nnc(-c2ccc(C)cc2)n1N |  | active: 8.91 µM |
| O=C(Nc1ccon1)c1cccc(C(F)(F)F)c1 | 35% |  |
| CCOc1ccc2cc(S(=O)(=O)N3CCOCC3)ccc2c1 | inactive: -46.5% |  |
| O=C(/C=C/c1ccco1)Nc1ccc2c(c1)OCO2 |  | active: 10 µM |
| O=C(NC1CCCC1)c1n[nH]c2ccccc12 | 267% |  |
| Cc1ccc(/C=C/C(=O)N2CCN(c3cccc(C(F)(F)F)c3)CC2)cc1 | -60.3% |  |
| CCOc1ccc(C(=O)NC2CCN(S(C)(=O)=O)CC2)cc1 | -35.8% |  |
| O=C(/C=C1\NC2(CCCC2)Cc2ccccc21)C(=O)N/N=C/c1ccc(O)c(O)c1 | 55% |  |
| Cc1nccc2[nH]c(=O)c(C(=O)NCCCN(C)C3CCCCC3)cc12 | 20% |  |
| Cc1ccc(NS(=O)(=O)c2ccc(N/N=C/c3ccncc3)c([N+](=O)[O-])c2)c(C)c1 | -13.6% |  |
| CCOc1ccc(C2=CS/C(=C(\C#N)c3nnc4n3CCCCC4)N2CC)cc1 | -48.1% |  |
| COc1cc(C(CC(=O)O)n2cnnn2)ccc1OC(C)C (stereo unspecified) | -58.3% |  |
| CC(=O)N1CCN(C2c3cccc4cccc(c34)C2NS(=O)(=O)c2ccccc2)CC1 (stereo unspecified) | 43.9% |  |
| CCc1ccc(CNC(=O)c2cc3n(n2)CCCN(Cc2ccccc2)C3=O)cc1 | inactive: -54% |  |
| O=C(c1ccco1)N1CCC2(CC1)CCN(c1ccncc1)CC2 | inactive: -43.4% |  |
